Measured values: publication PMC3022720
These are yes or no findings as the source states them, for the method shown. In cells and extracts the contact can be indirect. A result given as binding can be weak or reduced; the word gives no strength.

Target: T1, Centrosomal Protein 190 (Cp190), wild type (Drosophila melanogaster (endogenous in pupae)) (UniProt Q24478)
T1 sequence: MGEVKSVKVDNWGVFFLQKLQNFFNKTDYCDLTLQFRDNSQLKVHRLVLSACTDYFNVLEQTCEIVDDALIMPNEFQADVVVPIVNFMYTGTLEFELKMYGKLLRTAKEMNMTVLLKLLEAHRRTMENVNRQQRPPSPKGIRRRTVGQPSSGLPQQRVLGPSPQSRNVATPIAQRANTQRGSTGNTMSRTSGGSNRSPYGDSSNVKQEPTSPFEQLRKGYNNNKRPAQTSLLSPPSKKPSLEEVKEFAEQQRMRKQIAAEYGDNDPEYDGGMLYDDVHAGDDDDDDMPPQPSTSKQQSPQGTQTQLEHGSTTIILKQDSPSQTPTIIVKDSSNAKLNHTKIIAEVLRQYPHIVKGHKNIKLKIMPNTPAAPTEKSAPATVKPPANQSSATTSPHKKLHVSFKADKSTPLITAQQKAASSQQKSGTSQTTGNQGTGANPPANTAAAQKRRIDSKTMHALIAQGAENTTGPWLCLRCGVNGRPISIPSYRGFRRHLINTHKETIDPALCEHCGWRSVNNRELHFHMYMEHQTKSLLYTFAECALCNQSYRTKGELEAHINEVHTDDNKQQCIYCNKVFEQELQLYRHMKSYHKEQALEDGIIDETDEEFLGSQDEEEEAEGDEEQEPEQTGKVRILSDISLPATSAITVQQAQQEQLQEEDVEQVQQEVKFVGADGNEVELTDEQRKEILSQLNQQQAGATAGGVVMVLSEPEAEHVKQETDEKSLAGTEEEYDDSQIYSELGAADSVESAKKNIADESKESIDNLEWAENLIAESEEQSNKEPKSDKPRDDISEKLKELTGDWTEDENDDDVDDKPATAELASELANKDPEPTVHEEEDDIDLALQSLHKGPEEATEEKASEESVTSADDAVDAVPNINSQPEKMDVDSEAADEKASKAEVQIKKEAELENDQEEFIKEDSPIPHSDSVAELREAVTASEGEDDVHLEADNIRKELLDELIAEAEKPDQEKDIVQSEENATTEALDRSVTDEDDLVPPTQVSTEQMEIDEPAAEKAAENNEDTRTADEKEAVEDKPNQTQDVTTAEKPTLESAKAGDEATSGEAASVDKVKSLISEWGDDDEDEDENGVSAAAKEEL
Assay: co-IP; extracts of pupae; anti-Myc from y2 ct6; P[Ubi63e::myc-CP190dBTB]/+; CP190^3/TM6B pupae, anti-Cp190 from y2 ct6 pupae; immunoblots with anti-Cp190 and anti-Mod(mdg4)67.2; mock controls anti-Myc or pre-immune serum from y2 ct6 pupae

## Modifier of mdg 4 67.2 [Mod(mdg 4)67.2]
  binding: binds
